Results published in the supplement of paper PMC6411743.
± gives the standard deviation of the averaged measurements. Only a part is listed here, and it is no random draw.

Amino acid sequences for entries named in this document (tags omitted). A change or cut given only in a name is not applied to a line headed by its entry.
UniProt Q96LA8, whole entry, looked up: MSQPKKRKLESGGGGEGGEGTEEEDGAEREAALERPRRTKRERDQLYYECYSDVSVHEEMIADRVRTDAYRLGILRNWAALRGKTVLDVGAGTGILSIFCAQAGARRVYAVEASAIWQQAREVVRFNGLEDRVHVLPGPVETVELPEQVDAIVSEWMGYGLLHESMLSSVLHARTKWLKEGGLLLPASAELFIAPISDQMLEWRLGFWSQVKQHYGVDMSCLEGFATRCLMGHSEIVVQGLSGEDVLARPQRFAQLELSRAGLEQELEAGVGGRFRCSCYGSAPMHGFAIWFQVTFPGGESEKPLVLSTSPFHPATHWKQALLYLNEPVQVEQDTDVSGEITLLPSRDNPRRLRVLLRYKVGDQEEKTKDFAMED
UniProt Q96SZ5, whole entry: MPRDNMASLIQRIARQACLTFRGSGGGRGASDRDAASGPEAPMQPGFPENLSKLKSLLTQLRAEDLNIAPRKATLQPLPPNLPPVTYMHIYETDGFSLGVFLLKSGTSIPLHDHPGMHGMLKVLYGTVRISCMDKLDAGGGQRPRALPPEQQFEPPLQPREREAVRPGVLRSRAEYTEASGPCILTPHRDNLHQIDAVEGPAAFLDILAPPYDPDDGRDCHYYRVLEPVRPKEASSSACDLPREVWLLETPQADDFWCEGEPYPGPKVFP
UniProt Q96EP0: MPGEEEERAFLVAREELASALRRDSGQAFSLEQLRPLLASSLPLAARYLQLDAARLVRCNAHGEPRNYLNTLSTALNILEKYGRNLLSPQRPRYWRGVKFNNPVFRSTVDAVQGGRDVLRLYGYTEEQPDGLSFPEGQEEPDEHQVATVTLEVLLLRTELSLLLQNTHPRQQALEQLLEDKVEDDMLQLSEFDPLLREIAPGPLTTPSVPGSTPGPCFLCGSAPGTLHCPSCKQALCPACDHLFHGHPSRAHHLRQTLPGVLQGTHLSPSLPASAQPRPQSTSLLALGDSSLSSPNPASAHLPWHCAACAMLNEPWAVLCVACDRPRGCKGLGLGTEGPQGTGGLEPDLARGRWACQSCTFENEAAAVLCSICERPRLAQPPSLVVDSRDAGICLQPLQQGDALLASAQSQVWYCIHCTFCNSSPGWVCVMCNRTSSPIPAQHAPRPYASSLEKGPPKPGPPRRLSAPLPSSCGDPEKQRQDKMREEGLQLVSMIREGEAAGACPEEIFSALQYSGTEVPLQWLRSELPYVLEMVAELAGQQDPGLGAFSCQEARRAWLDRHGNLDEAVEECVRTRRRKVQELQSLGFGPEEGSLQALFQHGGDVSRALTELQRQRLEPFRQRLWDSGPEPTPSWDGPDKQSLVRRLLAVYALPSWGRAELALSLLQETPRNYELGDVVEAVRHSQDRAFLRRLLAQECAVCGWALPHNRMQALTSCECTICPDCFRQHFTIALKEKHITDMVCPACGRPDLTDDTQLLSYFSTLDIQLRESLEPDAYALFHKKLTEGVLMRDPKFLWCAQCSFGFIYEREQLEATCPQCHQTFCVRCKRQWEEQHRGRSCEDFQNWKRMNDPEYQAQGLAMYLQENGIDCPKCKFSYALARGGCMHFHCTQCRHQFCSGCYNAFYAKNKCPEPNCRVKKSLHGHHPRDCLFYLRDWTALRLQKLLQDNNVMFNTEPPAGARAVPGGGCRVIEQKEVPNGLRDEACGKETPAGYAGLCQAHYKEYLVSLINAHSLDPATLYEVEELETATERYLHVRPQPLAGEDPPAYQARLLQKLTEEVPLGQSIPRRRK
UniProt Q96BU1: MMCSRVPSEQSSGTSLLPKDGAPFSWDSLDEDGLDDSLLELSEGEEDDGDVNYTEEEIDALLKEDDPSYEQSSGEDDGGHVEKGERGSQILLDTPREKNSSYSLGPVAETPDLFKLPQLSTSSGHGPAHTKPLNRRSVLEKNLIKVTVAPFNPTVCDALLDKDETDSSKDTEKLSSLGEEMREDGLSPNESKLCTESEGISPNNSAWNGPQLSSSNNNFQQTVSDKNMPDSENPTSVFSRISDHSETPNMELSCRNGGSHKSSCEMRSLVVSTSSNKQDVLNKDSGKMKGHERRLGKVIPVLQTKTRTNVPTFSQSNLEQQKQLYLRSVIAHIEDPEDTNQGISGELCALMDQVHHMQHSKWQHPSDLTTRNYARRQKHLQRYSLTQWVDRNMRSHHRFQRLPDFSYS
UniProt Q96GC9: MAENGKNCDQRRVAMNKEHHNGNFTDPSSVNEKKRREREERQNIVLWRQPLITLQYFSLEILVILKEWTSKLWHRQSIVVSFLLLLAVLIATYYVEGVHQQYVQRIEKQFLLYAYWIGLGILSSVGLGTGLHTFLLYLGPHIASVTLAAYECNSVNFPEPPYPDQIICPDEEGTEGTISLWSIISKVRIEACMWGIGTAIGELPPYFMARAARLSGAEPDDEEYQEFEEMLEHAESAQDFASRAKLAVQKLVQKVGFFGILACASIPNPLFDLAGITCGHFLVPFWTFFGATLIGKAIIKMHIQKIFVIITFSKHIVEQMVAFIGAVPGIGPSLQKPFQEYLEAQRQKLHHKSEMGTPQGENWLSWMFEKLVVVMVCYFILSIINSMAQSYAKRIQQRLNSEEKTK
UniProt Q96QT6: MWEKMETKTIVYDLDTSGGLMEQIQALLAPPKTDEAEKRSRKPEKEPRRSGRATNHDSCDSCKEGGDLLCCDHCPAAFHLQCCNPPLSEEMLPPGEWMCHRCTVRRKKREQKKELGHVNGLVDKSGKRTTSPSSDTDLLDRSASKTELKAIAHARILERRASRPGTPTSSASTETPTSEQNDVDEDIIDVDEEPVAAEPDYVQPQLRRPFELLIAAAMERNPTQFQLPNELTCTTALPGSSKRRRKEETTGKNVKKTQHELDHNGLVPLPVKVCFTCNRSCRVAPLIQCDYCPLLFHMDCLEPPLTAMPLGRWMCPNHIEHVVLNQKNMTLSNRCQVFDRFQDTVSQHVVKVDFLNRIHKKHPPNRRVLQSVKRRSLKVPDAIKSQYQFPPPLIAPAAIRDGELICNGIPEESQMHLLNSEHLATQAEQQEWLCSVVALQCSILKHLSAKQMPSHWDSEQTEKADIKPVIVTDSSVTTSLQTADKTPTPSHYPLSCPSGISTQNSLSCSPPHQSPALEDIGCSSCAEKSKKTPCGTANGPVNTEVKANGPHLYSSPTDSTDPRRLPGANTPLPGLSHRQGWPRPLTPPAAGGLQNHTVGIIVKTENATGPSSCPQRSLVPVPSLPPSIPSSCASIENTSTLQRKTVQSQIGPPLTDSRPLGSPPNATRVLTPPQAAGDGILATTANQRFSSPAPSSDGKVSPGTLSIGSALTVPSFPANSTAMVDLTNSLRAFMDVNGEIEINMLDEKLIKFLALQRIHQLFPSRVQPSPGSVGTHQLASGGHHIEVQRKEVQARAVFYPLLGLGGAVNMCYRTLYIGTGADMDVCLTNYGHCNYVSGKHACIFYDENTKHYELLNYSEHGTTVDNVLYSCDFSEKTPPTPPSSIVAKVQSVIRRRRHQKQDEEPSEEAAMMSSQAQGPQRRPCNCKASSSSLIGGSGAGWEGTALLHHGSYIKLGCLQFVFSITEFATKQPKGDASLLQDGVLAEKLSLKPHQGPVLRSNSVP
UniProt Q96SK2: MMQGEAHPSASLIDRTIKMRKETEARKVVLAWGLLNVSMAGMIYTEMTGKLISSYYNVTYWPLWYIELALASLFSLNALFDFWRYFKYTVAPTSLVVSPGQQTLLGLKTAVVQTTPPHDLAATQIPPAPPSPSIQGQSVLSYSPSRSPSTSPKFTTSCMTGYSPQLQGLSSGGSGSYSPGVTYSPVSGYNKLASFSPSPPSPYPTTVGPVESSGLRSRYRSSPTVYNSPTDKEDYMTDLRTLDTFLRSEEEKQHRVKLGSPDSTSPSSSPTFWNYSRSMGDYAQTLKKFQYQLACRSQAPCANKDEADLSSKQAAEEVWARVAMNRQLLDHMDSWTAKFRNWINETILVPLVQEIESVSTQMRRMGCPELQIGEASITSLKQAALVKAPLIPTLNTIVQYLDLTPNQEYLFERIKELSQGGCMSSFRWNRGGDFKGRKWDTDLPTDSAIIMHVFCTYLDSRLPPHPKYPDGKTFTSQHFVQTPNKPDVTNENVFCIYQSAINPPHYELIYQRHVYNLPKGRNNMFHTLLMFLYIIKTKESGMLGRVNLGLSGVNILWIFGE
UniProt Q96NB2: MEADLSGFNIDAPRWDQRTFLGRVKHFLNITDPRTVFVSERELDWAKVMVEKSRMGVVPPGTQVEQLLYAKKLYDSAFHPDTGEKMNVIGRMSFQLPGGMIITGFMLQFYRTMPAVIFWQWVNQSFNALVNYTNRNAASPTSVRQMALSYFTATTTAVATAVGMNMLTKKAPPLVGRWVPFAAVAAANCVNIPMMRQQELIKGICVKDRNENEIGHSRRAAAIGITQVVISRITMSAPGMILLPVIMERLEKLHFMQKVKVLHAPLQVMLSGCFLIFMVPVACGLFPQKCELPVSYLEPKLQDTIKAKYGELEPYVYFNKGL
UniProt Q96I24: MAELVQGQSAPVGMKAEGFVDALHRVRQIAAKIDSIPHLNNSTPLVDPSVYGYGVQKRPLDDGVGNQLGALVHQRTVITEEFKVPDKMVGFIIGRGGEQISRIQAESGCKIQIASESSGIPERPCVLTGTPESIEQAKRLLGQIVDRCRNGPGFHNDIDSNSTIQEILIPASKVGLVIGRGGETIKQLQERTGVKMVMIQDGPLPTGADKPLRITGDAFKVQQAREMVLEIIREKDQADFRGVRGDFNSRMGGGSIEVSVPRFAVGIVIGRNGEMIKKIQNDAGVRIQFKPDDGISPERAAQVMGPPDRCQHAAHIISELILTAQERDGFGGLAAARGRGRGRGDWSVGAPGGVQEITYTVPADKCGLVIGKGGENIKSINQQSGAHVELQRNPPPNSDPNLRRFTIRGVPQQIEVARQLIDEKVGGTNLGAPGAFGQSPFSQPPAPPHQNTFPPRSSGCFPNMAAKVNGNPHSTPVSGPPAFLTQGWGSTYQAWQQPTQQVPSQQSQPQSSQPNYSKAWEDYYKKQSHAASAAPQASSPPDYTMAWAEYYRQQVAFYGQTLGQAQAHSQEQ
UniProt Q96J02: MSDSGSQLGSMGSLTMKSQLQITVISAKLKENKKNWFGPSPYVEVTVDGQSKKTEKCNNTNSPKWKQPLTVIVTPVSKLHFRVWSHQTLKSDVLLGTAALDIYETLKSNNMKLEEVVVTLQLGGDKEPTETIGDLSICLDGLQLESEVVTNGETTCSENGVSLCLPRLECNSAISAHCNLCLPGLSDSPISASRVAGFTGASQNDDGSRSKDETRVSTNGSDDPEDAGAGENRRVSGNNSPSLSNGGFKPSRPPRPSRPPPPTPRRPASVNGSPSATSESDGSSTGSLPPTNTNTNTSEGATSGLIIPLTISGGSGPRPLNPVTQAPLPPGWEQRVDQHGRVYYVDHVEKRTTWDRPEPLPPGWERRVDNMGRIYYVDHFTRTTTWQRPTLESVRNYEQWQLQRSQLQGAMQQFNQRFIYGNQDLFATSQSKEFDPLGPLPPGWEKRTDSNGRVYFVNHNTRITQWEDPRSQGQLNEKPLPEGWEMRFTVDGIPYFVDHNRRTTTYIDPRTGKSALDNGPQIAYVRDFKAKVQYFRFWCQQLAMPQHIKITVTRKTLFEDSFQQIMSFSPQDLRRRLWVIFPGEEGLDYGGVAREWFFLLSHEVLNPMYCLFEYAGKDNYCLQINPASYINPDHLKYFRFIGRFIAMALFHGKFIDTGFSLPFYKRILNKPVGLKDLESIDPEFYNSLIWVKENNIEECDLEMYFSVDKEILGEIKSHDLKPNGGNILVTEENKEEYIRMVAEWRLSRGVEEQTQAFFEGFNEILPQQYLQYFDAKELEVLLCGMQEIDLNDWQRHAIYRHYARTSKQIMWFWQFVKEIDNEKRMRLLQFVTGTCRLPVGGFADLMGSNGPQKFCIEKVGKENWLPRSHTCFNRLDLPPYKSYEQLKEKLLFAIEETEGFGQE
UniProt Q96EI5: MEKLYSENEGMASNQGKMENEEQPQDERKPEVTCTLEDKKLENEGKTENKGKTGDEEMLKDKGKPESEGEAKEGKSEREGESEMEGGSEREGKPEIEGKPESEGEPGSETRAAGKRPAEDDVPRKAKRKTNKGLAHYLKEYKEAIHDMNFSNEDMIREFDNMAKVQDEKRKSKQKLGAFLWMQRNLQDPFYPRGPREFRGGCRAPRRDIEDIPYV
UniProt Q96DF8: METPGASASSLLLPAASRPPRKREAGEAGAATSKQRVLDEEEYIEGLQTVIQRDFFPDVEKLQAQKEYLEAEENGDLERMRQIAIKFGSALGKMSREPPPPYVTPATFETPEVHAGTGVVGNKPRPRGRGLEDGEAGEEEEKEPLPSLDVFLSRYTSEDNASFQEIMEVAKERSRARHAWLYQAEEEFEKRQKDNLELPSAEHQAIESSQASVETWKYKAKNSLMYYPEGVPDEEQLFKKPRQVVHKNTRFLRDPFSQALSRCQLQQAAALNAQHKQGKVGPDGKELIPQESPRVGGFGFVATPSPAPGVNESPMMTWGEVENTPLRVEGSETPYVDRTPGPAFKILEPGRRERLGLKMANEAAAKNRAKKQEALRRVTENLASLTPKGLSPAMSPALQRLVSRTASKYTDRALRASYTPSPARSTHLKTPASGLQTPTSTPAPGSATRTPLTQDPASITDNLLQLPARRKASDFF

Compound: Nc1ncnc2c1ncn2[C@@H]1O[C@H](COP(=O)(O)OP(=O)(O)OP(=O)(O)O)[C@@H](O)[C@H]1O [adenosine triphosphate]
Experiment: NP40-soluble protein abundance relative to vehicle (solubility fold change) (ratio); higher = more soluble protein in presence of ATP
In short: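 Data come from three independent experiments in which Dounce-homogenised Jurkat crude lysate was treated at eight concentrations from 0.1 to 10 mM. Treatment ran 10 min at room temperature and then 3 min at 37 °C, after which 0.8% NP40 and benzonase were added for 60 min at 4 °C before ultracentrifugation. The supernatant underwent TMT labelling and LC-MS/MS, and vsn-normalised intensities were expressed as fold change against the detergent-processed vehicle in each replicate.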

| Target | NP40-soluble protein abundance (concentration: 1mM) | NP40-soluble protein abundance (concentration: 2mM) | NP40-soluble protein abundance (concentration: 4mM) | NP40-soluble protein abundance (concentration: 6mM) | NP40-soluble protein abundance (concentration: 8mM) | NP40-soluble protein abundance (concentration: 10mM) |
| --- | --- | --- | --- | --- | --- | --- |
| PRMT6 (UniProt Q96LA8) | 0.984 ± 0.073 | 0.9612 ± 0.0025 | 0.967 ± 0.026 | 0.988 ± 0.12 | 0.932 ± 0.11 | 1 ± 0.031 |
| Sirt1 (UniProt Q96EB6) | 0.931 ± 0.042 | 0.951 ± 0.019 | 0.935 ± 0.021 | 0.963 ± 0.025 | 0.894 ± 0.014 | 0.899 ± 0.019 |
| UniProt Q96CU9 and related entries | 1.02 ± 0.075 | 1.03 ± 0.057 | 1.03 ± 0.051 | 0.971 ± 0.075 | 1.08 ± 0.012 | 1.09 ± 0.025 |
| HEXIM2 (UniProt Q96MH2) | 1.04 ± 0.097 | 0.974 ± 0.075 | 0.969 ± 0.074 | 0.956 ± 0.12 | 0.986 ± 0.026 | 1.01 ± 0.035 |
| ADO (UniProt Q96SZ5) | 0.945 ± 0.013 | 0.978 ± 0.026 | 0.959 ± 0.016 | 0.919 ± 0.05 | 0.959 ± 0.019 | 0.941 ± 0.037 |
| ZC3H10 (UniProt Q96K80) | 1.01 ± 0.037 | 1.03 ± 0.021 | 1.02 ± 0.11 | 1.11 ± 0.12 | 0.885 ± 0.086 | 0.951 ± 0.063 |
| ZFR (UniProt Q96KR1) | 1.03 ± 0.04 | 1.02 ± 0.05 | 1.03 ± 0.052 | 1.09 ± 0.11 | 1.11 ± 0.071 | 1.14 ± 0.096 |
| UniProt Q96EP0 and related entries | 0.9666 ± 0.0096 | 0.986 ± 0.025 | 0.964 ± 0.027 | 0.976 ± 0.059 | 0.964 ± 0.046 | 0.985 ± 0.036 |
| EAF1 (UniProt Q96JC9) | 0.936 ± 0.08 | 0.92 ± 0.042 | 0.879 ± 0.043 | 0.966 ± 0.11 | 0.868 ± 0.048 | 0.863 ± 0.018 |
| UniProt Q96BU1 and related entries | 1.04 ± 0.14 | 1 ± 0.14 | 1.01 ± 0.19 | 0.997 ± 0.21 | 0.969 ± 0.19 | 1.05 ± 0.096 |
| UniProt Q96GC9 | 0.905 ± 0.074 | 0.913 ± 0.15 | 0.905 ± 0.14 | 0.768 ± 0.044 | 0.903 ± 0.14 | 0.844 ± 0.03 |
| PHF12 (UniProt Q96QT6) | 1.22 ± 0.076 | 1.37 ± 0.15 | 1.44 ± 0.21 | 1.36 ± 0.033 | 1.27 ± 0.07 | 1.4 ± 0.033 |
| UniProt Q96MG7 | 1.01 ± 0.059 | 0.998 ± 0.034 | 1.01 ± 0.059 | 0.997 ± 0.061 | 1.02 ± 0.043 | 0.959 ± 0.053 |
| MTFMT (UniProt Q96DP5) | 1.12 ± 0.12 | 1.132 ± 0.00096 | 1.14 ± 0.06 | 1.09 ± 0.2 | 1.17 ± 0.044 | 1.21 ± 0.16 |
| UniProt Q96SK2 and related entries | 1.06 ± 0.044 | 1.04 ± 0.051 | 1.1 ± 0.078 | 1.15 ± 0.046 | 1.17 ± 0.026 | 1.2 ± 0.054 |
| UniProt Q96QZ7 and related entries | 1.12 ± 0.18 | 1.19 ± 0.084 | 1.26 ± 0.059 | 1.26 ± 0.068 | 1.21 ± 0.2 | 1.3 ± 0.21 |
| SFXN2 (UniProt Q96NB2) | 0.974 ± 0.014 | 0.98 ± 0.035 | 0.98 ± 0.042 | 0.942 ± 0.087 | 1.02 ± 0.042 | 1.07 ± 0.19 |
| FUBP3 (UniProt Q96I24) | 0.974 ± 0.033 | 0.952 ± 0.015 | 0.945 ± 0.034 | 0.977 ± 0.014 | 0.941 ± 0.015 | 0.926 ± 0.011 |
| ZBTB10 (UniProt Q96DT7) | 0.918 ± 0.069 | 0.988 ± 0.026 | 0.959 ± 0.098 | 0.967 ± 0.055 | 0.918 ± 0.025 | 0.914 ± 0.031 |
| LENG1 (UniProt Q96BZ8) | 0.922 ± 0.056 | 0.98 ± 0.094 | 1.13 ± 0.085 | 1.24 ± 0.053 | 1.29 ± 0.23 | 1.17 ± 0.44 |
| UniProt Q96J02 and related entries | 1.13 ± 0.046 | 1.13 ± 0.054 | 1.13 ± 0.023 | 1.06 ± 0.081 | 1.15 ± 0.043 | 1.14 ± 0.041 |
| MARS2 (UniProt Q96GW9) | 0.985 ± 0.097 | 0.998 ± 0.078 | 0.99 ± 0.1 | 0.966 ± 0.098 | 0.983 ± 0.088 | 0.982 ± 0.084 |
| UniProt Q96RN5 and related entries | 0.958 ± 0.06 | 0.97 ± 0.11 | 0.988 ± 0.073 | 1.01 ± 0.18 | 0.995 ± 0.068 | 0.973 ± 0.11 |
| UniProt Q96KC2 | 1.07 ± 0.2 | 0.944 ± 0.055 | 0.957 ± 0.048 | 0.973 ± 0.12 | 1.01 ± 0.032 | 0.993 ± 0.031 |
| LYSMD1 (UniProt Q96S90) | 0.989 ± 0.038 | 0.984 ± 0.036 | 1.01 ± 0.038 | 1 ± 0.022 | 0.949 ± 0.038 | 0.947 ± 0.026 |
| UniProt Q96HH6 and related entries | 1.05 ± 0.068 | 1.01 ± 0.037 | 0.982 ± 0.02 | 0.925 ± 0.055 | 0.977 ± 0.055 | 0.973 ± 0.046 |
| UniProt Q96DZ1 and related entries | 1.02 ± 0.081 | 1.02 ± 0.043 | 0.986 ± 0.06 | 0.98 ± 0.072 | 1.01 ± 0.058 | 0.981 ± 0.041 |
| UniProt Q96EI5 and related entries | 0.919 ± 0.078 | 0.961 ± 0.026 | 0.982 ± 0.047 | 0.935 ± 0.045 | 0.949 ± 0.064 | 0.982 ± 0.02 |
| UniProt Q96DF8 | 0.939 ± 0.091 | 0.982 ± 0.078 | 0.984 ± 0.09 | 1 ± 0.1 | 0.988 ± 0.054 | 1.01 ± 0.068 |
| PTCD3 (UniProt Q96EY7) | 1.02 ± 0.034 | 0.961 ± 0.079 | 0.959 ± 0.096 | 0.88 ± 0.14 | 0.921 ± 0.14 | 0.908 ± 0.12 |

Shown tab-delimited: entries from further up
Target	NP40-soluble protein abundance (concentration: 1mM)	NP40-soluble protein abundance (concentration: 2mM)	NP40-soluble protein abundance (concentration: 4mM)	NP40-soluble protein abundance (concentration: 6mM)	NP40-soluble protein abundance (concentration: 8mM)	NP40-soluble protein abundance (concentration: 10mM)
UniProt Q96MG7	1.01 ± 0.059	0.998 ± 0.034	1.01 ± 0.059	0.997 ± 0.061	1.02 ± 0.043	0.959 ± 0.053
MTFMT (UniProt Q96DP5)	1.12 ± 0.12	1.132 ± 0.00096	1.14 ± 0.06	1.09 ± 0.2	1.17 ± 0.044	1.21 ± 0.16
